Test results reported in paper PMC7946643.
No constants are given. Whether binding was seen depends on the method and setting. In cells and extracts the contact can be indirect. Some results given as binding are weak or reduced against the parent protein; the word gives no strength.

By UniProt entry, the sequences of proteins in these tests, tags left out.
UniProt Q09666: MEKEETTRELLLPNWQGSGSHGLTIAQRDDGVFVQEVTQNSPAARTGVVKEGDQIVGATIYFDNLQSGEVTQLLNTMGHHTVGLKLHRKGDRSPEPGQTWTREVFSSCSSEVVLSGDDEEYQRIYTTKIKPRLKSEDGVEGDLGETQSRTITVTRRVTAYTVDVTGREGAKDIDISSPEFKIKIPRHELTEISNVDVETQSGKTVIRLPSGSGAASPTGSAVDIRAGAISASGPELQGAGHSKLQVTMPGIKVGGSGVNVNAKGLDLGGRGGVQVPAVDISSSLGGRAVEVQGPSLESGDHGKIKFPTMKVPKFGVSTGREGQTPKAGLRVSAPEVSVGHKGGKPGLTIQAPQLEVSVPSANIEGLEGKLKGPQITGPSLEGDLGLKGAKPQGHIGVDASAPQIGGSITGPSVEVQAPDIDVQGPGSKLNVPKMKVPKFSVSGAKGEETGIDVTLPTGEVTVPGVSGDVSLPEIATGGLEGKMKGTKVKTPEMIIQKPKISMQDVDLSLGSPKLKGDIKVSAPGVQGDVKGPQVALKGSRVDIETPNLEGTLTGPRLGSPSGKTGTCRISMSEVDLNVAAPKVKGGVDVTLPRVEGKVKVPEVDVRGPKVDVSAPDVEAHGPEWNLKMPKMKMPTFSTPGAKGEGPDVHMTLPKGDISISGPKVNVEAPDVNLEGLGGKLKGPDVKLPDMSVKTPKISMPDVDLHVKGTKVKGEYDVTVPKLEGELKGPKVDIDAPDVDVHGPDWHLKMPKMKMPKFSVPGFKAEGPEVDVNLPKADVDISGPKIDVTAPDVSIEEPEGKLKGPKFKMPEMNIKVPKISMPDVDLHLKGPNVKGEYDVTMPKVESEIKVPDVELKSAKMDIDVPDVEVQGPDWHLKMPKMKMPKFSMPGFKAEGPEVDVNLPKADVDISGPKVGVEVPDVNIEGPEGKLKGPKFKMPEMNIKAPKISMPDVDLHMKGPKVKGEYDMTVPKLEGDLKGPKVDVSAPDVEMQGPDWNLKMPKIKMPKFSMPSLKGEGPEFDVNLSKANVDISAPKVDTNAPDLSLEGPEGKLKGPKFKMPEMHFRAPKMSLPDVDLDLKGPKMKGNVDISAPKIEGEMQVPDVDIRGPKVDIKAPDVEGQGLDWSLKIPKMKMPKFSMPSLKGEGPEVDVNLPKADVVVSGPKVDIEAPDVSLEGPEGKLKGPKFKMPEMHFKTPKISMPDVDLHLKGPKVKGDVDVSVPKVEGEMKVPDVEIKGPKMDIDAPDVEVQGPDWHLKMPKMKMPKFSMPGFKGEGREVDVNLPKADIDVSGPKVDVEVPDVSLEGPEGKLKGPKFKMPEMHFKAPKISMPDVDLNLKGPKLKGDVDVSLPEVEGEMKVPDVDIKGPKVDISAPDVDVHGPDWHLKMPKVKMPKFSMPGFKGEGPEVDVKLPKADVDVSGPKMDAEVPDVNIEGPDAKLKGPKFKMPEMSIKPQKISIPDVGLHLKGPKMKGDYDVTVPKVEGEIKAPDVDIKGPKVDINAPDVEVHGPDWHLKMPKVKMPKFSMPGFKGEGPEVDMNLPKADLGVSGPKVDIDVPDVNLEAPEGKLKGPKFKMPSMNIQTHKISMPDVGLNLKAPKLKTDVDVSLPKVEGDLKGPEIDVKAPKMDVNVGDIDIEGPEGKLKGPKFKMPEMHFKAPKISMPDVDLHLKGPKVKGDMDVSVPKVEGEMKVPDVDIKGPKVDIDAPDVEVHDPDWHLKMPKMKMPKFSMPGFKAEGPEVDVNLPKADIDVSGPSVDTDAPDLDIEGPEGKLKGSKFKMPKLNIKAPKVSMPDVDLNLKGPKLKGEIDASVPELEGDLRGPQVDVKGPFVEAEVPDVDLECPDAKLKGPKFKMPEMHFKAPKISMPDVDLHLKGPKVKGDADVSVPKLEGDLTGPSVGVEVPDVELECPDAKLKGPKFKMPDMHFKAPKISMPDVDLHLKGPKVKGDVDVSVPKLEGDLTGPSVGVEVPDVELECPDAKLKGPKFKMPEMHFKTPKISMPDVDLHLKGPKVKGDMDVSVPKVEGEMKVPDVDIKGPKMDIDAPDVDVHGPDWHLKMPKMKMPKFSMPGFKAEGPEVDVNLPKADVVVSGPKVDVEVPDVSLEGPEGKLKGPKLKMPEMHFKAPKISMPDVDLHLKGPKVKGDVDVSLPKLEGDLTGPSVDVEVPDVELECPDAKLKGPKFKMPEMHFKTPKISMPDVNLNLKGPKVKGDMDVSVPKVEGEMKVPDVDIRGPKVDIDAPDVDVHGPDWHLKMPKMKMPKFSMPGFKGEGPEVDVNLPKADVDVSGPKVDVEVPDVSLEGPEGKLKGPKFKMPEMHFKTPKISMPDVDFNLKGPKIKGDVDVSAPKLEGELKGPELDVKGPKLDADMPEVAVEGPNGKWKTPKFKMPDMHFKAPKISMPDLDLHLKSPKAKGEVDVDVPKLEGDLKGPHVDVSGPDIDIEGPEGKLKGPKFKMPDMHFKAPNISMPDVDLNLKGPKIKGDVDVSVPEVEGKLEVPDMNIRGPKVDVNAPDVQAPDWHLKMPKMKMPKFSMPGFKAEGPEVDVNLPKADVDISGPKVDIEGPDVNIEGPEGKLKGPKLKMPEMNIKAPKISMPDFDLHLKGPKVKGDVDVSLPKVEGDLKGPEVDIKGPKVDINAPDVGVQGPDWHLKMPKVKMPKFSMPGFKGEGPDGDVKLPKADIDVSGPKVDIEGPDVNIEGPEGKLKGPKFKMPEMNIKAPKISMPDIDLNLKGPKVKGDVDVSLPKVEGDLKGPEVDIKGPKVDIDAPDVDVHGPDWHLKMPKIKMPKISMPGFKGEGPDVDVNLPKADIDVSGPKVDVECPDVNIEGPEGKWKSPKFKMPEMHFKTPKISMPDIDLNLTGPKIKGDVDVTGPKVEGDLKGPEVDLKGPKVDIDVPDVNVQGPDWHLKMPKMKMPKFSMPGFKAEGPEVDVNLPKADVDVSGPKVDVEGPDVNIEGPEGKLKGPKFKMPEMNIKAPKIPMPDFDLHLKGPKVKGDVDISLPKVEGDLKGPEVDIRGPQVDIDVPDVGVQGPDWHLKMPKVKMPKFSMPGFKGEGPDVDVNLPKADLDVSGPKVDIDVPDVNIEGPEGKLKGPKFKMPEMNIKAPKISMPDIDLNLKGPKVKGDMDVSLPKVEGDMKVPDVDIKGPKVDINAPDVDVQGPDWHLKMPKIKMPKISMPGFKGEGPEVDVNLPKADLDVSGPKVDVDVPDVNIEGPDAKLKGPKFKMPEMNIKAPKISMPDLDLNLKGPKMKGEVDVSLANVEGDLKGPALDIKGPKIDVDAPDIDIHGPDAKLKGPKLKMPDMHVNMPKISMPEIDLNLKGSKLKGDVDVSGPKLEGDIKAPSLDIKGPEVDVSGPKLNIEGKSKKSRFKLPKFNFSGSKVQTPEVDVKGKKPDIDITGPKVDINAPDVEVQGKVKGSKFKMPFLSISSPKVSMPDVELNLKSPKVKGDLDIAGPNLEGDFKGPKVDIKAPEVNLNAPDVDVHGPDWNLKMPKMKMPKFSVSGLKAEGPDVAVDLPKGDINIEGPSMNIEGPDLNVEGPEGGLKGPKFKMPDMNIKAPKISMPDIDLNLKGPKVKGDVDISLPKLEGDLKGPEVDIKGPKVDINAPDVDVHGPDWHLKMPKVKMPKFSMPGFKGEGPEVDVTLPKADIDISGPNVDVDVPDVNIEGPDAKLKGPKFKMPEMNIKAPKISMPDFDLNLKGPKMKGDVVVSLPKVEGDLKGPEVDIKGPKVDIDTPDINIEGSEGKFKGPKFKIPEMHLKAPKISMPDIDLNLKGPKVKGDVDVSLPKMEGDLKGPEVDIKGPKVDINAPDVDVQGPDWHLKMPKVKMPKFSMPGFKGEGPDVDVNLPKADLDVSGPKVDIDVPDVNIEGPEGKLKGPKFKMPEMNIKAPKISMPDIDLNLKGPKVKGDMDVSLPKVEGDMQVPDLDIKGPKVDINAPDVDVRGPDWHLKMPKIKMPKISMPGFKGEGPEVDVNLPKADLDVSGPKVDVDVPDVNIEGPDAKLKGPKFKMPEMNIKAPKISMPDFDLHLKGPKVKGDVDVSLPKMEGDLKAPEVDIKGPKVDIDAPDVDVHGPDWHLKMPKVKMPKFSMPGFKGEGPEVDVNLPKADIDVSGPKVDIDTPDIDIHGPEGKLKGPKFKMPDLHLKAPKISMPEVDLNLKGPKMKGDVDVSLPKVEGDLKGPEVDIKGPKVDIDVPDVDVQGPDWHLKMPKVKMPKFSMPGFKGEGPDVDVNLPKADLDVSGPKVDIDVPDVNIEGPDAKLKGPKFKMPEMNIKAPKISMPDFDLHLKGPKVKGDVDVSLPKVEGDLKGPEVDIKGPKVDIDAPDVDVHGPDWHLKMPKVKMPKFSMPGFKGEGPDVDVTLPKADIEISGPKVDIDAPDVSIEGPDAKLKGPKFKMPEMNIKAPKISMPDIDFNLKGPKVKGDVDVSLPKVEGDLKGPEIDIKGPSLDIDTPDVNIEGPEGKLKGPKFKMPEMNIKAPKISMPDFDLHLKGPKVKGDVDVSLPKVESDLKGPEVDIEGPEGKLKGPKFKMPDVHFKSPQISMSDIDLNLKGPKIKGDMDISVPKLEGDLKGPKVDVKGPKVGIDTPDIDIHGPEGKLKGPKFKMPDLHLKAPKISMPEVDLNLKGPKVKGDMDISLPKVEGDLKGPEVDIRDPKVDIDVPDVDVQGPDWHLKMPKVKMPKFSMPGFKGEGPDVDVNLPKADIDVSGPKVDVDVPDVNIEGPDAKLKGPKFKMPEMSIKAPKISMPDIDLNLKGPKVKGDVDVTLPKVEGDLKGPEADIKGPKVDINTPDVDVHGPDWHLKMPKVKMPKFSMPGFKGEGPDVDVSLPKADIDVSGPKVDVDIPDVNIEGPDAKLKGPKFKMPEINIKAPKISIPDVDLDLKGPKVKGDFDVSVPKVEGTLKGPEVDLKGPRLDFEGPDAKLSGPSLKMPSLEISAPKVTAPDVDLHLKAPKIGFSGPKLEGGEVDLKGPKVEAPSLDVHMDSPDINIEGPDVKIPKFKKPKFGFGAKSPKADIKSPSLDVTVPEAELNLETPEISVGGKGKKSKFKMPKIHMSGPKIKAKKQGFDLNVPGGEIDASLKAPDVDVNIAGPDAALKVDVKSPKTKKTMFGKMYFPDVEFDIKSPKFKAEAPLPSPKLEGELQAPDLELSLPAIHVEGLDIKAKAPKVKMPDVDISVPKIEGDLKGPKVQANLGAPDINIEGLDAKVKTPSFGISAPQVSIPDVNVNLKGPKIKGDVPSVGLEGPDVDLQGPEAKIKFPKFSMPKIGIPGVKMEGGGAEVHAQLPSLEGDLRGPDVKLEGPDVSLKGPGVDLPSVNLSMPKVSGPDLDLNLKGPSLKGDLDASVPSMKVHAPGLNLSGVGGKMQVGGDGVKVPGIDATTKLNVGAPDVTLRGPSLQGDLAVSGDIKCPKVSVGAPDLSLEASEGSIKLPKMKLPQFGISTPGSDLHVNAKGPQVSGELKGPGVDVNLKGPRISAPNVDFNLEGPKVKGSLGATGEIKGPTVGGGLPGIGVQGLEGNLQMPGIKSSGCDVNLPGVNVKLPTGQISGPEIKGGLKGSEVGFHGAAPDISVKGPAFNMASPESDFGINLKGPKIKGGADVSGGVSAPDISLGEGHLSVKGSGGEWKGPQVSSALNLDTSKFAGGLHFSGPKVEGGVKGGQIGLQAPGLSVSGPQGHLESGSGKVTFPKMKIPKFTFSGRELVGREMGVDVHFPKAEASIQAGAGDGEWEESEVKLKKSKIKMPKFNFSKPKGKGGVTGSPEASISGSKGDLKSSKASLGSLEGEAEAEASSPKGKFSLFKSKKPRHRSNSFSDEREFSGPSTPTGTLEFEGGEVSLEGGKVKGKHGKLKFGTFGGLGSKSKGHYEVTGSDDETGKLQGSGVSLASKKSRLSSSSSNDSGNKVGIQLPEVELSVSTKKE
UniProt Q96RD7: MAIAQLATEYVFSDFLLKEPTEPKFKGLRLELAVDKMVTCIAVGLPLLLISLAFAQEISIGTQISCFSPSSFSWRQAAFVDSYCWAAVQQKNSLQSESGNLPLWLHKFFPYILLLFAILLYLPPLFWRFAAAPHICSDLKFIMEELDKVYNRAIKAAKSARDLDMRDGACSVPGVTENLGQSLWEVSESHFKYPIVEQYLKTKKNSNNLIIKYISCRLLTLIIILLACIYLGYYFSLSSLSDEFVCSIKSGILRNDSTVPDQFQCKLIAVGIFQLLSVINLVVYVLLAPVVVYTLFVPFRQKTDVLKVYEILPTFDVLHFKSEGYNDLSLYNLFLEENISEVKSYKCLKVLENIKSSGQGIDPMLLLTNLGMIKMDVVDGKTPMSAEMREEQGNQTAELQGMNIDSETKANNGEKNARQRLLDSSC

Molecular target: AHNAK (human (endogenous in Rh18 and Rh30)) (UniProt Q09666)
Assay: co-IP; whole-cell lysates of stable Rh18 and Rh30 cells induced for 48 h, IP lysis buffer, 5-8 ug antibody (anti-Myc or anti-AHNAK) for 16 h, protein A/G plus agarose beads, western blot

binding: binds
Substance: pannexin 1 (from UniProt Q96RD7 1-426)
